# The list shows a part of the results.
# Legend:
# Test in all cases: glycan array binding signal (z-score within array); higher = stronger binding
# Details in all cases: glycan notation: IUPAC condensed, linker removed
# [1] = molecular target: Man(a1-2)Man(a1-3)[Man(a1-2)Man(a1-6)]Man(a1-6)[Man(a1-2)Man(a1-2)Man(a1-3)]Man(b1-4)GlcNAc(b1-4)GlcNAc
# Procedure, shortened: (§1)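 Columns mapping to the same glycan were averaged after glycan names were converted to IUPAC-condensed notation. The data come from 3228 arrays in the Consortium for Functional Glycomics database, limited to those with an available protein sequence. Binding is reported as a within-array Z-score averaged across arrays of one protein sequence and across linkers.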
# [2] = molecular target: Man(a1-2)Man(a1-3)[Man(a1-6)]Man(a1-6)[Man(a1-2)Man(a1-3)]Man(b1-4)GlcNAc(b1-4)GlcNAc
# Procedure, shortened: as §1
# [3] = molecular target: Man(a1-2)Man(a1-6)[Man(a1-3)]Man(a1-6)[Man(a1-2)Man(a1-2)Man(a1-3)]Man
# Procedure, shortened: as §1
# [4] = molecular target: Man(a1-2)Man(a1-6)[Man(a1-3)]Man(a1-6)[Man(a1-2)Man(a1-2)Man(a1-3)]Man(b1-4)GlcNAc(b1-4)GlcNAc
# Procedure, shortened: as §1
# Man(a1-3)[Man(a1-6)]Man = molecular target: Man(a1-3)[Man(a1-6)]Man
# Procedure, shortened: as §1
# [5] = molecular target: Man(a1-3)[Man(a1-6)]Man(a1-6)[Man(a1-2)Man(a1-3)]Man(b1-4)GlcNAc(b1-4)GlcNAc
# Procedure, shortened: as §1
# [6] = molecular target: Man(a1-3)[Man(a1-6)]Man(a1-6)[Man(a1-3)]Man
# Procedure, shortened: as §1
# [7] = molecular target: Man(a1-3)[Man(a1-6)]Man(a1-6)[Man(a1-3)]Man(b1-4)GlcNAc(b1-4)GlcNAc
# Procedure, shortened: as §1
# [8] = molecular target: Man(a1-3)[Man(a1-6)]Man(b1-4)GlcNAc(b1-4)GlcNAc
# Procedure, shortened: as §1
# [9] = molecular target: Man(a1-3)[Man(a1-6)]Man(b1-4)GlcNAc(b1-4)[Fuc(a1-6)]GlcNAc
# Procedure, shortened: as §1
# Man(a1-6)Man = molecular target: Man(a1-6)Man
# Procedure, shortened: as §1
# Man(b1-4)GlcNAc = molecular target: Man(b1-4)GlcNAc
# Procedure, shortened: as §1
# MurNAc(b1-4)GlcNAc = molecular target: MurNAc(b1-4)GlcNAc
# Procedure, shortened: as §1
# Neu5Ac(a2-3)Gal = molecular target: Neu5Ac(a2-3)Gal
# Procedure, shortened: as §1
# [10] = molecular target: Neu5Ac(a2-3)Gal(b1-3)GalNAc
# Procedure, shortened: as §1
# [11] = molecular target: Neu5Ac(a2-3)Gal(b1-3)GalNAc(b1-3)Gal(a1-4)Gal(b1-4)Glc
# Procedure, shortened: as §1
# [12] = molecular target: Neu5Ac(a2-3)Gal(b1-3)GalNAc(b1-4)[Neu5Ac(a2-3)]Gal(b1-4)Glc
# Procedure, shortened: as §1
# [13] = molecular target: Neu5Ac(a2-3)Gal(b1-3)GalNAc(b1-4)[Neu5Ac(a2-8)Neu5Ac(a2-3)]Gal(b1-4)Glc
# Procedure, shortened: as §1
# [14] = molecular target: Neu5Ac(a2-3)Gal(b1-3)GalNAc6S
# Procedure, shortened: as §1
# [15] = molecular target: Neu5Ac(a2-3)Gal(b1-3)GlcNAc
# Procedure, shortened: as §1
# [16] = molecular target: Neu5Ac(a2-3)Gal(b1-3)GlcNAc(b1-2)Man
# Procedure, shortened: as §1
# [17] = molecular target: Neu5Ac(a2-3)Gal(b1-3)GlcNAc(b1-2)Man(a1-3)[GlcNAc(b1-4)][Neu5Ac(a2-3)Gal(b1-3)GlcNAc(b1-2)Man(a1-6)]Man(b1-4)GlcNAc(b1-4)GlcNAc
# Procedure, shortened: as §1
# [18] = molecular target: Neu5Ac(a2-3)Gal(b1-3)GlcNAc(b1-2)Man(a1-3)[Neu5Ac(a2-3)Gal(b1-3)GlcNAc(b1-2)Man(a1-6)]Man(b1-4)GlcNAc(b1-4)GlcNAc
# Procedure, shortened: as §1
# [19] = molecular target: Neu5Ac(a2-3)Gal(b1-3)GlcNAc(b1-3)Gal(b1-3)GlcNAc
# Procedure, shortened: as §1
# [20] = molecular target: Neu5Ac(a2-3)Gal(b1-3)GlcNAc(b1-3)Gal(b1-4)GlcNAc
# Procedure, shortened: as §1
# [21] = molecular target: Neu5Ac(a2-3)Gal(b1-3)GlcNAc(b1-3)GalNAc
# Procedure, shortened: as §1
# [22] = molecular target: Neu5Ac(a2-3)Gal(b1-3)GlcNAc(b1-4)Gal(b1-4)Glc
# Procedure, shortened: as §1
# [23] = molecular target: Neu5Ac(a2-3)Gal(b1-3)GlcNAc(b1-6)GalNAc
# Procedure, shortened: as §1
# [24] = molecular target: Neu5Ac(a2-3)Gal(b1-3)GlcNAc6S
# Procedure, shortened: as §1
# [25] = molecular target: Neu5Ac(a2-3)Gal(b1-3)[Fuc(a1-4)]GlcNAc
# Procedure, shortened: as §1
# [26] = molecular target: Neu5Ac(a2-3)Gal(b1-3)[Fuc(a1-4)]GlcNAc(b1-3)Gal(b1-3)[Fuc(a1-4)]GlcNAc
# Procedure, shortened: as §1
# [27] = molecular target: Neu5Ac(a2-3)Gal(b1-3)[Fuc(a1-4)]GlcNAc(b1-3)Gal(b1-4)[Fuc(a1-3)]GlcNAc
# Procedure, shortened: as §1
# [28] = molecular target: Neu5Ac(a2-3)Gal(b1-3)[GlcNAc(b1-6)]GalNAc
# Procedure, shortened: as §1
# [29] = molecular target: Neu5Ac(a2-3)Gal(b1-3)[Neu5Ac(a2-6)]GalNAc
# Procedure, shortened: as §1
# [30] = molecular target: Neu5Ac(a2-3)Gal(b1-3)[Neu5Ac(a2-6)]GlcNAc(b1-3)[Fuc(a1-3)[Gal(b1-4)]GlcNAc(b1-6)]Gal(b1-4)Glc
# Procedure, shortened: as §1
# [31] = molecular target: Neu5Ac(a2-3)Gal(b1-3)]Neu5Ac(a2-3)Gal(b1-4)]GlcNAc
# Procedure, shortened: as §1
# Neu5Ac(a2-3)Gal(b1-4)Glc = molecular target: Neu5Ac(a2-3)Gal(b1-4)Glc
# Procedure, shortened: as §1
binder,measurement,setting,value
Pbx1CASH domain (Cryptococcus neoformans) (protein) MDETKPLWGNPRADGISLACKDSIVERNVVYDATDGAIVLFGSAGSTVKNNHVYARTRVILGGINLVDYEPWDGDYTNVKVHHNHLYALGRYFKVGIVIGPASWSDDTESVVHSASVTDNEFSGGYWGYGIVVASAKNFEVLRNKVIWDGEQGVARFSGVPGS,glycan array binding signal (z-score),[1],1.9
same,glycan array binding signal (z-score),[2],-0.145
same,glycan array binding signal (z-score),[3],-0.129
same,glycan array binding signal (z-score),[4],0.614
same,glycan array binding signal (z-score),Man(a1-3)[Man(a1-6)]Man,0.377
same,glycan array binding signal (z-score),[5],0.737
same,glycan array binding signal (z-score),[6],-0.5
same,glycan array binding signal (z-score),[7],0.71
same,glycan array binding signal (z-score),[8],0.022
same,glycan array binding signal (z-score),[9],-0.814
same,glycan array binding signal (z-score),Man(a1-6)Man,-0.291
same,glycan array binding signal (z-score),Man(b1-4)GlcNAc,-0.348
same,glycan array binding signal (z-score),MurNAc(b1-4)GlcNAc,-0.487
same,glycan array binding signal (z-score),Neu5Ac(a2-3)Gal,-0.64
same,glycan array binding signal (z-score),[10],0.436
same,glycan array binding signal (z-score),[11],0.338
same,glycan array binding signal (z-score),[12],-0.169
same,glycan array binding signal (z-score),[13],0.435
same,glycan array binding signal (z-score),[14],-0.62
same,glycan array binding signal (z-score),[15],-0.491
same,glycan array binding signal (z-score),[16],1.24
same,glycan array binding signal (z-score),[17],-0.044
same,glycan array binding signal (z-score),[18],2.22
same,glycan array binding signal (z-score),[19],-0.164
same,glycan array binding signal (z-score),[20],0.137
same,glycan array binding signal (z-score),[21],-0.077
same,glycan array binding signal (z-score),[22],0.567
same,glycan array binding signal (z-score),[23],-0.316
same,glycan array binding signal (z-score),[24],0.698
same,glycan array binding signal (z-score),[25],-0.375
same,glycan array binding signal (z-score),[26],-0.309
same,glycan array binding signal (z-score),[27],-0.701
same,glycan array binding signal (z-score),[28],0.877
same,glycan array binding signal (z-score),[29],0.03
same,glycan array binding signal (z-score),[30],-0.764
same,glycan array binding signal (z-score),[31],-0.205
same,glycan array binding signal (z-score),Neu5Ac(a2-3)Gal(b1-4)Glc,-0.606

# Reformatted: entries from further up
binder	measurement	setting	value
Pbx1CASH domain (Cryptococcus neoformans) (protein) MDETKPLWGNPRADGISLACKDSIVERNVVYDATDGAIVLFGSAGSTVKNNHVYARTRVILGGINLVDYEPWDGDYTNVKVHHNHLYALGRYFKVGIVIGPASWSDDTESVVHSASVTDNEFSGGYWGYGIVVASAKNFEVLRNKVIWDGEQGVARFSGVPGS	glycan array binding signal (z-score)	[24]	0.698
same	glycan array binding signal (z-score)	[25]	-0.375
same	glycan array binding signal (z-score)	[26]	-0.309

# Source: the supplement of paper PMC8728848
